{"source": "paper PMC8184810", "about": "“Light regulates stomatal development by modulating paracrine signaling from inner tissues”", "key": {"[1]": {"biological_target": "T1, MBP-HY5 (Arabidopsis thaliana) (UniProt O24646)", "T1 sequence (looked up)": "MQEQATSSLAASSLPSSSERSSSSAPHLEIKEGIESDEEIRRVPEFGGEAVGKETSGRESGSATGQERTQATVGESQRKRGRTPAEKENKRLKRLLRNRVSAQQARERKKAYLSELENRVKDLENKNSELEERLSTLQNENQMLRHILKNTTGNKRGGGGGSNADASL", "assay": "competition with a labelled probe", "conditions": "did not effectively compete, EMSA: 20 fmol biotin probe, ~1 ug protein, 20 ul binding buffer (composition not given), on ice 1 h, recombinant protein, residues 1-168, protein details: N-terminal MBP (pETG-40A), label: biotin (pull-down), unlabeled as competitor"}, "MBP": {"system": "MBP", "assay": "EMSA", "conditions": "EMSA: 20 fmol biotin probe, ~1 ug protein, 20 ul binding buffer (composition not given), on ice 1 h; recombinant protein"}, "[2]": {"biological_target": "T1, MBP-HY5 (Arabidopsis thaliana)", "assay": "pull-down", "conditions": "5 mM MgCl2, salmon sperm DNA; pull-down: 10 mM Tris-HCl pH 7.5, 50 mM KCl, 5 mM MgCl2, 2.5% glycerol, 0.05% NP-40, 5 ug salmon sperm DNA, 10 ug BSA, 4 C 1 h; recombinant protein; residues 1-168; protein details: N-terminal MBP (pETG-40A); label: biotin (pull-down), unlabeled as competitor"}}, "note": "For some of these results: The comparison behind a weaker result is the experiment's own reference, which may not be listed here. For some of these results: Where a protein sequence is shown, tags need not be part of it. For some of these results: Construct, isoform or probe ends are uncertain for at least one entry. For some of these results: A negative result means that nothing was seen under these conditions."}
{"sequence": "ATATGTTTGACCGAAGAAAAATAGAGTTAAATATGTTGTGCTAAAAGGATAAAGAGAAGA (double strand) [P3 (STOMAGEN promoter)]", "values": [{"measurement": "binding result", "setting": "[1]; unlabeled P3 vs biotin-P2 probe", "result": "binds more weakly"}]}
{"sequence": "TCCTCTGTATTTTCAAACTCTTATCTCTACGTGTGCACAAACCTCACCATTAGATGATAA (double strand) [P2 (STOMAGEN promoter)]", "values": [{"measurement": "binding result", "setting": "MBP", "result": "no binding"}]}
{"sequence": "TCTCTCTCCACAACATTTGGTCCATACGATAAAGCAAGAAGAAGAATTAAGAATTAGAGC (double strand) [P1 (STOMAGEN promoter)]", "values": [{"measurement": "binding result", "setting": "[1]; unlabeled P1 vs biotin-P2 probe", "result": "binds more weakly"}, {"measurement": "binding result", "setting": "[2]", "result": "binds more weakly"}]}
